{
  "source": "paper PMC9021288",
  "about": "(Nature Communications, 2022)",
  "assay": "in vitro",
  "conditions": "human",
  "data": [
    {"compound": "CC(C)NCC(O)COc1ccc(CC(N)=O)cc1", "note": "(stereo not shown) [Atenolol]", "values": [
      {"measurement": "Papp A→B at 9000 Sec, 2 µM", "setting": "Caco-2, pH 7.4", "result": 0.4, "unit": "×10⁻⁶ cm/s"},
      {"measurement": "Papp B→A at 9000 Sec, 2 µM", "setting": "Caco-2, pH 7.4", "result": 0.4, "unit": "×10⁻⁶ cm/s"},
      {"measurement": "efflux ratio at 9000 Sec, 2 µM", "setting": "Caco-2, pH 7.4", "result": 1},
      {"measurement": "Papp at 9000 Sec, 2 µM", "setting": "Caco-2, pH 7.4, Papp n=1, 2", "result": 0.37, "unit": "×10⁻⁶ cm/s"}
    ]}
  ]
}
